{"sequences": {"note": "Sequences of proteins named here, by UniProt entry; tags and fusion partners are left off. A change or cut given only in a name is not applied to a line headed by its entry.", "UniProt Q9XEC6": "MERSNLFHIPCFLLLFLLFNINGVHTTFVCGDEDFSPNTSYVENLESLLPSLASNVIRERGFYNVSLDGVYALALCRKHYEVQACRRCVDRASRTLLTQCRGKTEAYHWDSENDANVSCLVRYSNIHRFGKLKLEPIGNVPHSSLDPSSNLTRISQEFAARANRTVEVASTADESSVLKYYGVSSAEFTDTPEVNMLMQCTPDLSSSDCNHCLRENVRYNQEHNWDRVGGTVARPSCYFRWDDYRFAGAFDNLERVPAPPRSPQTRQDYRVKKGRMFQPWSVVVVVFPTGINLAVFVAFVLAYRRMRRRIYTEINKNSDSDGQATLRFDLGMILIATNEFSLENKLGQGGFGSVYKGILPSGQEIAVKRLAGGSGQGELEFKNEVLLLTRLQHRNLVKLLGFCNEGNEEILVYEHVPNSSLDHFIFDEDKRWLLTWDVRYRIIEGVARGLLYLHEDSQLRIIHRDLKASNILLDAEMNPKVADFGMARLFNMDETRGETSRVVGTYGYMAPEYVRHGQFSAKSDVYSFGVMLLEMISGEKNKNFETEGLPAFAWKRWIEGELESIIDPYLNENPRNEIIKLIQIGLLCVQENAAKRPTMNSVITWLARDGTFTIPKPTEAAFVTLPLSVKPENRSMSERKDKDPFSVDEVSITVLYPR"}, "source": "paper PMC5663720", "target": "T1, BIK1-YFP^N (N. benthamiana) (Arabidopsis thaliana) (UniProt O48814)", "T1 sequence": "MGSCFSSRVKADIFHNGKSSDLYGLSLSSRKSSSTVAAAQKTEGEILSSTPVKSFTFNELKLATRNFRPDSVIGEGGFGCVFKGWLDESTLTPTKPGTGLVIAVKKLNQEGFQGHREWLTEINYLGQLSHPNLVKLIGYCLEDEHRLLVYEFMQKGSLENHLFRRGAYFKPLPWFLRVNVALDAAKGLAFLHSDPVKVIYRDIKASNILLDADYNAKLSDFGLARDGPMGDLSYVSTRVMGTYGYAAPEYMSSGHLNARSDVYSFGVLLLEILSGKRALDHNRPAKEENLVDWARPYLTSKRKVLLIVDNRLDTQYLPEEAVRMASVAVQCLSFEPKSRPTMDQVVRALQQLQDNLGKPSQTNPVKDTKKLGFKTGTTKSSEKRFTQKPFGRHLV", "assay": "split reporter; BiFC (split YFP) in N. benthamiana leaves co-infiltrated with Agrobacterium C58C1; confocal microscopy", "note": "No constants are given. Whether binding was seen depends on the method and setting. In cells and extracts the contact can be indirect. A result given as binding can be weak or reduced; the word gives no strength. Tags and fused reporters may be left off the sequences shown."}
{"substance": "CRK36^C6789A-YFP^C (from UniProt Q9XEC6) (receptor)", "values": [{"measurement": "binding", "result": "binds"}]}
